Laboratory results from paper PMC5635695, “More than Enzymes That Make or Break Cyclic Di-GMP—Local Signaling in the Interactome of GGDEF/EAL Domain Proteins of Escherichia coli” (mBio, 2017).
These are yes or no findings as the source states them, for the method shown. Binding can be weak; no strength is given.

Tests used:
Test in all cases: two-hybrid; Bacterio-Match II bacterial two-hybrid in an E. coli reporter strain (derivative of XL1-Blue MRF'); hybrids with lambda cI-NTD (pBT) and RNAP alpha-NTD (pTRG), vector swaps; HIS3 reporter, selective plates with 5 mM 3-AT, 50 uM IPTG, 24 h at 37°C then 48 h at 28°C; CFU ratio selective/nonselective normalised to the RpoS/RssB interaction
PdeR (E. coli K-12) = biological target: T1, PdeR (E. coli K-12) (UniProt P77334)
T1 sequence: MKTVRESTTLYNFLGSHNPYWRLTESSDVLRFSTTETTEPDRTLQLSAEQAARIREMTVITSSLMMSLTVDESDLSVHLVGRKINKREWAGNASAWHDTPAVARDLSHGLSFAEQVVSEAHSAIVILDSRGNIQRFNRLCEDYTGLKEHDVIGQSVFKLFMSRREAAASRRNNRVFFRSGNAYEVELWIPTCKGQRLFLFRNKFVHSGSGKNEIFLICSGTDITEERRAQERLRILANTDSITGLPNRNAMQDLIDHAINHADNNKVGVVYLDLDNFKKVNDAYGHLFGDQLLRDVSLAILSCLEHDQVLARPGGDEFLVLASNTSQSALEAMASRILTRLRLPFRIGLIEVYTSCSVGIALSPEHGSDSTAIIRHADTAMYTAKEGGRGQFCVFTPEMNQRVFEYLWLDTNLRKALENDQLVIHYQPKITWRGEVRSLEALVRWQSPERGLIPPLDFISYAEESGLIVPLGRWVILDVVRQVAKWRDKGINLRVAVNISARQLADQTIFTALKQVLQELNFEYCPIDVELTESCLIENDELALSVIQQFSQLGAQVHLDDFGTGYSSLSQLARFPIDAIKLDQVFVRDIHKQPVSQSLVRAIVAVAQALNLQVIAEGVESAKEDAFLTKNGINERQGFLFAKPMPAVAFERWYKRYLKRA

[1] = biological target: T2, isolated degenerate GGDEF domain of PdeR (E. coli K-12) (UniProt P77334)
T2 sequence: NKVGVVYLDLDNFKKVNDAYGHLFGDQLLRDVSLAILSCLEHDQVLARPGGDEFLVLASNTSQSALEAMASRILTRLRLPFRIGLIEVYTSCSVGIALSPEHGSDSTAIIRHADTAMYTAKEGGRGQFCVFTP

[2] = biological target: T3, isolated EAL domain of PdeR (E. coli K-12) (UniProt P77334)
T3 sequence: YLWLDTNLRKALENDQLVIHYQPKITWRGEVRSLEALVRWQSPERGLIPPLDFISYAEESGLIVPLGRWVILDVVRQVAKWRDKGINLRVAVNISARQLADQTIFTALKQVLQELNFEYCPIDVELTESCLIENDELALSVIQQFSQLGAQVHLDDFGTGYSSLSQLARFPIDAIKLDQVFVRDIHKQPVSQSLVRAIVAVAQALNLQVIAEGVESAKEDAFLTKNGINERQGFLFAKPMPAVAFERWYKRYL

Row | Substance | binding (PdeR (E. coli K-12)) | binding [1] | binding [2]
1 | DgcE (entire cytoplasmic region) (E. coli K-12) (domain or fragment) | binds |  | 
2 | DgcN (entire cytoplasmic region) (E. coli K-12) (domain or fragment) | binds |  | 
3 | oxygen-sensing globin sensor domain of DgcO (E. coli K-12) (domain or fragment) |  | binds | binds
